Source: the supplement of paper PMC10849652
The other results are listed elsewhere or left out.

Amino acid sequences for entries named in this document (tags omitted). A change or cut given only in a name is not applied to a line headed by its entry.
UniProt Q96GY3: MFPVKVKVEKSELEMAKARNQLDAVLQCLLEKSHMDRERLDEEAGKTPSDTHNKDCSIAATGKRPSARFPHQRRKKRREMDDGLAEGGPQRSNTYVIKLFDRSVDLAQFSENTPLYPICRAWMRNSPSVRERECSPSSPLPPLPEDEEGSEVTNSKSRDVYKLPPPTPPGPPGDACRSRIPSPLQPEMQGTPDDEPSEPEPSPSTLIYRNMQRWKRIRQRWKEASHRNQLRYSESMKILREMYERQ
UniProt Q08380: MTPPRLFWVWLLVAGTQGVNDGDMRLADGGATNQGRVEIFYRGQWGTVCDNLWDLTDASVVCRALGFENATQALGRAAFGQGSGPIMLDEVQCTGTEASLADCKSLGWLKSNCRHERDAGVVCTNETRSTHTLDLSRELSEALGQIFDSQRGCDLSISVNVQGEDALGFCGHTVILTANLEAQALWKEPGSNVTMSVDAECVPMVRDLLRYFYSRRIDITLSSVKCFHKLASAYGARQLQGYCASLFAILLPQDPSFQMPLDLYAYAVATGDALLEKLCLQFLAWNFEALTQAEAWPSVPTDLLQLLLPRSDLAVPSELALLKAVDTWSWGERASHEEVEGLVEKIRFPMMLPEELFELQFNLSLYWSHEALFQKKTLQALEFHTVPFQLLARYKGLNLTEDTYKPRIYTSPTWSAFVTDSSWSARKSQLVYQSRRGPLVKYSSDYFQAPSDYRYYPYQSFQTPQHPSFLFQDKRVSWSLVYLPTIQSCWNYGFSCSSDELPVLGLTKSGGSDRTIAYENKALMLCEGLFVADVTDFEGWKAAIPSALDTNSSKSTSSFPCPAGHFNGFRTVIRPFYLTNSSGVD
UniProt Q9BQE6: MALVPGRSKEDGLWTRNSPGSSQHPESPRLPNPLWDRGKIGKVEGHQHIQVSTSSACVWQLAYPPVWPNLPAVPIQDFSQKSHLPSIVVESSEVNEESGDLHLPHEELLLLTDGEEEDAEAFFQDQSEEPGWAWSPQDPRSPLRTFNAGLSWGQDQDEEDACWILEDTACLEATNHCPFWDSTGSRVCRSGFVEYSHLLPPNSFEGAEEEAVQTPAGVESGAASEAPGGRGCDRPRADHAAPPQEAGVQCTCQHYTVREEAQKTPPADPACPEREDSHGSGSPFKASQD
UniProt Q53QV2: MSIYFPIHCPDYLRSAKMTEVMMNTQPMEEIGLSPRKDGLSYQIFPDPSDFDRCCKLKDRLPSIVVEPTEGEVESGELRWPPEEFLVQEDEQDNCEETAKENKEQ
UniProt P02750: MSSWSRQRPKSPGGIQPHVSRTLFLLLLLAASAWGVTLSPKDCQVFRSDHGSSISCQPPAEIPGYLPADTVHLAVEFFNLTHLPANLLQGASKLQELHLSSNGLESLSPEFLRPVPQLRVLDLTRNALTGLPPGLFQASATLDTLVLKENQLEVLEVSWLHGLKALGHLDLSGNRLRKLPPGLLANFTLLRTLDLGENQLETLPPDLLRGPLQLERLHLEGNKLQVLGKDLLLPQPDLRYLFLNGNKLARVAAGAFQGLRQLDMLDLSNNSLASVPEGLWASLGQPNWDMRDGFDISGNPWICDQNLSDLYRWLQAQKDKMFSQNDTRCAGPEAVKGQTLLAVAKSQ

Assays:
Experiment in all cases: log2 fold change, soluble protein after heating vs DMSO (PISA); higher = thermal stabilisation; K562 cells, 10 uM, 30 min; active = over 0.2 and 3.5 SD of the protein, either way, in both replicates (recomputed)
[1] = compound: Cc1cccc(CC(=O)N2CCc3c2ccc(-c2cn(C)c4ncnc(N)c24)c3F)n1
Summary of the method: (§1)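 Soluble protein was quantified by TMTpro 16plex LC-MS/MS after channel sums were equalised. It was obtained as the supernatant after 21,000xg for 90 min from pooled aliquots of K562 cells (2×10^6 cells/mL, 10 μM compound, 30 min) heated for 3 min across 48°C-58°C and extracted in PBS with 0.5% NP-40 at 4°C. Thermal stability values are relative to control samples and come from duplicates. They are given as log2 fold changes.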

tipifarnib = compound: Cn1cncc1[C@@](N)(c1ccc(Cl)cc1)c1ccc2c(c1)c(-c1cccc(Cl)c1)cc(=O)n2C [tipifarnib]
Summary of the method: as §1

[2] = compound: NC(=O)Nc1cc(-c2cccc(F)c2)sc1C(=O)N[C@H]1CCCNC1
Summary of the method: as §1

[3] = compound: NC(=O)c1cnc(N[C@@H]2CCCC[C@@H]2N)nc1Nc1cccc(-n2nccn2)c1
Summary of the method: as §1

entinostat = compound: Nc1ccccc1NC(=O)c1ccc(CNC(=O)OCc2cccnc2)cc1 [entinostat]
Summary of the method: as §1

vorinostat = compound: O=C(CCCCCCC(=O)Nc1ccccc1)NO [vorinostat]
Summary of the method: as §1

nilotinib = compound: Cc1cn(-c2cc(NC(=O)c3ccc(C)c(Nc4nccc(-c5cccnc5)n4)c3)cc(C(F)(F)F)c2)cn1 [nilotinib]
Summary of the method: as §1

[4] = compound: Cc1nc(Nc2n[nH]c3c2CN(C(=O)N[C@H](CN(C)C)c2ccccc2)C3(C)C)c2sccc2n1
Summary of the method: as §1

[5] = compound: Cc1ncc(-c2ccnc(Nc3ccc(S(C)(=O)=O)cc3)n2)n1C(C)C
Summary of the method: as §1

citarinostat = compound: O=C(CCCCCCNC(=O)c1cnc(N(c2ccccc2)c2ccccc2Cl)nc1)NO [citarinostat]
Summary of the method: as §1

[6] = compound: O=C1NC(=O)C(c2cnc3ccccn23)=C1c1cn2c3c(cc(F)cc13)CN(C(=O)N1CCCCC1)CC2
Summary of the method: as §1

[7] = compound: c1cc(OCCN2CCCCC2)cc(-c2n[nH]c3ccc(-c4nnc[nH]4)cc23)c1
Summary of the method: as §1

[8] = compound: Cn1cc(-c2ccc3c(c2)CCN3C(=O)Cc2cccc(C(F)(F)F)c2)c2c(N)ncnc21
Summary of the method: as §1

[9] = compound: Cn1cc(-c2ccc3nnc(C(F)(F)c4ccc5ncccc5c4)n3n2)cn1
Summary of the method: as §1

mubritinib = compound: FC(F)(F)c1ccc(/C=C/c2nc(COc3ccc(CCCCn4ccnn4)cc3)co2)cc1 [mubritinib]
Summary of the method: as §1

[10] = compound: NC1(c2ccc(-c3nc4ccn5c(=O)[nH]nc5c4cc3-c3ccccc3)cc2)CCC1
Summary of the method: as §1

silmitasertib = compound: O=C(O)c1ccc2c(c1)nc(Nc1cccc(Cl)c1)c1ccncc12 [silmitasertib]
Summary of the method: as §1

dasatinib = compound: Cc1nc(Nc2ncc(C(=O)Nc3c(C)cccc3Cl)s2)cc(N2CCN(CCO)CC2)n1 [dasatinib]
Summary of the method: as §1

[11] = compound: NCC(=O)Nc1ccc(-n2nc(C(F)(F)F)cc2-c2ccc3c(ccc4ccccc43)c2)cc1
Summary of the method: as §1

Measured: log2 fold change

LIN37 (UniProt Q96GY3)
inactive: [1] -0.249 | tipifarnib 0.012 | [2] -0.077 | [3] -0.064 | entinostat 0.017 | vorinostat -0.061

LGALS3BP (UniProt Q08380)
inactive: nilotinib 0.063 | [4] -0.116 | [5] 0.056 | [3] 0.185 | citarinostat -0.081 | [6] 0.048 | [7] 0.005

LBHD1 (UniProt Q9BQE6)
inactive: [8] -0.119

LBH (UniProt Q53QV2)
inactive: nilotinib 0.029 | [4] 0.019 | [5] -0.082 | [9] 0.04 | tipifarnib 0.089 | mubritinib 0.032 | [3] 0.029 | [10] 0.079 | silmitasertib -0.011 | [6] 0.003

LRG1 (UniProt P02750)
inactive: [1] 0.001 | dasatinib 0.028 | [8] 0.182 | [9] 0.121 | tipifarnib 0.072 | mubritinib 0.021 | [2] 0.102 | [10] -0.002 | [11] -0.142 | entinostat -0.064 | vorinostat 0.028 | citarinostat 0.185 | silmitasertib -0.061 | [6] 0.193 | [7] 0.014
